For this experiment, the target named is SlGeBP5 (tomato (Solanum lycopersicum L.)). Nature of the experiment: two-hybrid; SlGeBP1 in pGADT7 as prey, SlGeBP5 in pGBKT7 as bait; Y2H Gold yeast; growth on SD/-Leu -Trp -His -Ade with 500 ng/mL AbA.

These are yes or no findings as the source states them, for the method shown. Binding can be weak; no strength is given.

With SlGeBP1 (from UniProt A0A3Q7EMN3), the binding entry is on record as “binds”.
